{
  "source": "PubChem BioAssay AID248",
  "about": "(DTP/NCI, 2004)",
  "system": "L1210 leukemia ip in BDF1 mice, survival T/C",
  "experiment": "NCI In Vivo Anticancer Drug Screen. Data for tumor model L1210 Leukemia (intraperitoneal) in B6D2F1 (BDF1) mice",
  "conditions": "T/C endpoint: mean survival time, higher T/C = longer survival",
  "key": {"[1]": {"conditions": "dose: 400.0 mg/kg/injection, schedule: Q01DX009 (ip), vehicle: saline"}, "[2]": {"conditions": "dose: 200.0 mg/kg/injection, schedule: Q04DX003 (ip), vehicle: Klucel (hydroxypropylcellulose) (HPC)"}, "[3]": {"conditions": "dose: 400.0 mg/kg/injection, schedule: Q04DX003 (ip), vehicle: Klucel (hydroxypropylcellulose) (HPC)"}, "[4]": {"conditions": "dose: 200.0 mg/kg/injection, schedule: Q01DX009 (ip), vehicle: saline"}},
  "note": "The list does not hold the whole screen: it is rich in T/C values a quarter to a half above the control, in often repeated tests (any T/C) and in doses without a T/C. Other doses and runs of a compound stand elsewhere. T/C: endpoint of the treated group in % of that of the vehicle group. Some entries give survivors of the animals treated and no T/C: the source files T/C as zero there, which appears to mark a toxic dose or a test without result, not a measured value. Some survivor counts are full or nearly so, which does not show that the dose was tolerated: survival well below the control is almost never listed, so the zero probably covers shortened survival too. Survivors were counted at the toxicity check, usually on the fifth day, unless a day is given; later deaths do not show. Schedules are NCI's codes, read here as Q, the interval in days (D) or hours (H), X, the number of doses. Some schedules carry Z or #; the key to these is not given. Where survival is the endpoint, this PubChem deposit counts one and a half times the control or more as active, and values a quarter to a half above the control carry no call in these data; other NCI protocols may use other cut-offs.",
  "data": [
    {"molecule": "S=C(n1ccnc1)n1ccnc1", "values": [
      {"measurement": "survivor count", "setting": "dose: 335.0 mg/kg/injection, schedule: Q01DX009 (ip), vehicle: saline", "result": "0 of 6"}
    ]},
    {"molecule": "COc1ccc(OC)c2c1C(=O)CC2C", "note": "(configuration not stated)", "values": [
      {"measurement": "survivor count", "setting": "[1]", "result": "3 of 6"}
    ]},
    {"molecule": "CC(OC(=O)CCN1CC1)C1CC1", "note": "(configuration not stated)", "values": [
      {"measurement": "survivor count", "setting": "dose: 40.0 mg/kg/injection, schedule: Q01DX009 (ip), vehicle: Klucel (hydroxypropylcellulose) (HPC)", "result": "4 of 6"},
      {"measurement": "survivor count", "setting": "dose: 80.0 mg/kg/injection, schedule: Q01DX009 (ip), vehicle: Klucel (hydroxypropylcellulose) (HPC)", "result": "1 of 6"},
      {"measurement": "survivor count", "setting": "[2]", "result": "2 of 6"},
      {"measurement": "survivor count", "setting": "[3]", "result": "0 of 6"}
    ]},
    {"molecule": "ClC/C=C/C[P+](c1ccccc1)(c1ccccc1)c1ccccc1", "values": [
      {"measurement": "survivor count", "setting": "dose: 12.5 mg/kg/injection, schedule: Q01DX009 (ip), vehicle: saline", "result": "0 of 6"},
      {"measurement": "survivor count", "setting": "dose: 25.0 mg/kg/injection, schedule: Q01DX009 (ip), vehicle: saline", "result": "0 of 6"},
      {"measurement": "survivor count", "setting": "dose: 50.0 mg/kg/injection, schedule: Q01DX009 (ip), vehicle: saline", "result": "0 of 6"},
      {"measurement": "survivor count", "setting": "dose: 100.0 mg/kg/injection, schedule: Q01DX009 (ip), vehicle: saline", "result": "0 of 6"},
      {"measurement": "survivor count", "setting": "[4]", "result": "0 of 6"},
      {"measurement": "survivor count", "setting": "[1]", "result": "0 of 6"}
    ]},
    {"molecule": "Nc1nc(Nc2ccc(Cl)c(Cl)c2)cc(=O)[nH]1", "values": [
      {"measurement": "survivor count", "setting": "dose: 100.0 mg/kg/injection, schedule: Q01DX Z (ip), vehicle: methylcellulose (MC)", "result": "5 of 6"}
    ]},
    {"molecule": "NC(=O)c1c(Br)c(Br)c(Br)c(Br)c1C(=O)O", "note": "(tested in a mixture with another compound)", "values": [
      {"measurement": "survivor count", "setting": "dose: 200.0 mg/kg/injection, schedule: Q04DX003 (ip), vehicle: saline with Tween-80", "result": "6 of 6"}
    ]},
    {"molecule": "COC(=O)C(Br)C(C)OC", "note": "(configuration not stated)", "values": [
      {"measurement": "survivor count", "setting": "[1]", "result": "6 of 6"}
    ]},
    {"molecule": "BrC(Br)c1ccccc1C(Br)Br", "values": [
      {"measurement": "T/C", "setting": "dose: 400.0 mg/kg/injection, schedule: Q01DX009 (ip), vehicle: gum acacia", "result": "132 % of control"}
    ]},
    {"molecule": "CC1CCCCC1O", "note": "(configuration not stated)", "values": [
      {"measurement": "survivor count", "setting": "dose: 400.0 mg/kg/injection, schedule: Q01DX009 (ip), vehicle: saline with Tween-80", "result": "2 of 6"}
    ]},
    {"molecule": "ONC(=Nc1ccccc1)c1ccccc1", "values": [
      {"measurement": "survivor count", "setting": "dose: 400.0 mg/kg/injection, schedule: Q04DX003 (ip), vehicle: saline", "result": "3 of 6"}
    ]},
    {"molecule": "CN1CCc2ccc(Oc3cccc4c3CCN(C)C4)cc2C1", "values": [
      {"measurement": "survivor count", "setting": "dose: 300.0 mg/kg/injection, schedule: Q01DX001 (ip), vehicle: other", "result": "0 of 6"}
    ]},
    {"molecule": "Cc1ccc2nc(Cl)cc(=O)n2c1", "values": [
      {"measurement": "survivor count", "setting": "dose: 400.0 mg/kg/injection, schedule: Q01DX001 (ip), vehicle: saline", "result": "2 of 4"}
    ]},
    {"molecule": "CCC(CC)=NNC(N)=O", "values": [
      {"measurement": "survivor count", "setting": "[2]", "result": "1 of 6"},
      {"measurement": "survivor count", "setting": "[3]", "result": "0 of 6"}
    ]},
    {"molecule": "CN(C)C1C(=O)C(C(N)=O)=C(O)C2(O)C(=O)C3=C(O)c4c(O)cccc4C(C)(O)C3C(O)C12", "note": "(configuration not stated)", "values": [
      {"measurement": "survivor count", "setting": "dose: 150.0 mg/kg/injection, schedule: Q01DX Z (ip), vehicle: water", "result": "2 of 6"}
    ]},
    {"molecule": "Cc1c([N+](=O)[O-])cc(C(C)(C)C)c(OC(=O)C(Cl)(Cl)Cl)c1[N+](=O)[O-]", "values": [
      {"measurement": "survivor count", "setting": "dose: 400.0 mg/kg/injection, schedule: Q04DX002 (ip), vehicle: Klucel (hydroxypropylcellulose) (HPC)", "result": "3 of 3"}
    ]},
    {"molecule": "CCN(c1ccccc1)c1ccc([N+](=O)[O-])c2no[n+]([O-])c12", "values": [
      {"measurement": "survivor count", "setting": "dose: 80.0 mg/kg/injection, schedule: Q04DX003 (ip), vehicle: saline with Tween-80", "result": "3 of 4"}
    ]},
    {"molecule": "CCN(CC)CC(=O)NCC(CCN(C)C)(c1ccc2ccccc2c1)C(C)C", "note": "(configuration not stated)", "values": [
      {"measurement": "survivor count", "setting": "[4]", "result": "1 of 6"},
      {"measurement": "survivor count", "setting": "[1]", "result": "0 of 6"}
    ]}
  ]
}
